Assay results taken from the supplement of paper PMC12067093, “Discovery and optimisation of a covalent ligand for TRIM25 and its application to targeted protein ubiquitination” (Chemical Science, 2025).
The other results are listed elsewhere or left out.

Compound: Cc1cc(ccc1-c1ccccc1)C(=O)N1CCCN(CC1)C(=O)CCl [compound 10]
Experiment: probe-labelled cysteine peptide fold change vs DMSO (competition) (log2 fold change); higher = less target engagement (more negative = stronger competition)
Conditions: THP-1, incubation time: 4 h
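Note: competitive profiling in live THP-1 cells: cysteine peptides tagged with an iodoacetamide desthiobiotin (IA-DTB) probe, intensity after compound treatment relative to DMSO-treated cells.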

Target	probe-labelled cysteine peptide fold change (10 µM)	probe-labelled cysteine peptide fold change (50 µM)
RAB4A_P20338_28_SCLLHQFIEK (UniProt P20338)	-0.145	-0.0658
RABGGTA_Q92696_99_AELGFLESCLR (UniProt Q92696)	-0.0439	-0.225
RABGAP1_Q9Y3P9_582_GEVWQLLAGCHNNDHLVEK (UniProt Q9Y3P9)	-0.137	0.0214
PWP2_Q15269_647_RFEISCNLSLDAMEEFLNR (UniProt Q15269)	0.232	0.365
RACK1_P63244_138_LWNTLGVCK (UniProt P63244)	0.105	0.057
QSOX1_O00391_165_LIDALESHHDTWPPACPPLEPAKLEEIDGFFAR (UniProt O00391)	-0.103	-0.409
RABIF_P47224_23_AVLCQR (UniProt P47224)	0.22	-0.192
RABGAP1_Q9Y3P9_230_GHDGTPESDCFAFTESHYNAELFR (UniProt Q9Y3P9)	-0.209	-0.0249
QARS_P47897_687_AFIHWVSQPLMCEVR (UniProt P47897)	0.143	-0.0311
RABEPK_Q7Z6M1_222_FYDDLHCIDISDMK (UniProt Q7Z6M1)	0.0511	-0.0546
QDPR_P09417_85_VDAILCVAGGWAGGNAK (UniProt P09417)	0.0495	0.111
R3HCC1L_Q7Z5L2_665_VFCSYQK (UniProt Q7Z5L2)	0.0217	-0.498
RABGGTA_Q92696_145_NFHCWDYR (UniProt Q92696)	0.0322	0.248
RABGGTA_Q92696_516_LQELLLCNNR (UniProt Q92696)	-0.0554	-0.0882

2 records drawn at random from the list so far, as already listed:
Target	probe-labelled cysteine peptide fold change (10 µM)	probe-labelled cysteine peptide fold change (50 µM)
R3HCC1L_Q7Z5L2_665_VFCSYQK (UniProt Q7Z5L2)	0.0217	-0.498
RABGGTA_Q92696_99_AELGFLESCLR (UniProt Q92696)	-0.0439	-0.225
